Test system: collagen
Assay: Hydroxyproline in lung tissue or serum (Hydroxyproline assay kit)
Assay type: in vivo, mice

SMILES: N#CCCN [BAPN, beta-aminopropionitrile]
- lung hydroxyproline levels (2 week treatment, measure of collagen present in tissue): did not significantly alter
- hydroxyproline levels in serum (p>0.05, measure of collagen turnover): no change
- collagen protein levels or degradation (measured by quantitating hydroxproline levels) (treated mice): could not detect any change

— patent publication US10293023B2, “Method of altering vascular permeability and uses thereof” (CHILDREN'S MEDICAL CENTER CORPORATION, priority 2013, dated 2019)
